Data from the ROBIN nucleic acid binder screens, doi:10.1002/anie.202211358.

Oligonucleotides screened, 5′ to 3′:
TPP: TPP riboswitch RNA three-way junction, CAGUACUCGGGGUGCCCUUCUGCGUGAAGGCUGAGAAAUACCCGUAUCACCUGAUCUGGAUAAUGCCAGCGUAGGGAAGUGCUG. About 160 hits among about 24,000 compounds.
SAM-II: SAM-II riboswitch RNA pseudoknot, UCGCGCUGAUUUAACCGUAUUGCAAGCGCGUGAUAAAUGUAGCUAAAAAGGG. About 200 hits among about 21,000 compounds.
PreQ1: PreQ1 riboswitch RNA pseudoknot, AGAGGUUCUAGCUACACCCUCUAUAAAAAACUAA. From B. subtilis. About 170 hits among about 24,000 compounds.

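Each compound is printed as two spots on a slide made to bind it covalently, so it has no test concentration; the read-out is fluorescence of the bound, labelled oligonucleotide. For the PreQ1, TPP and SAM-II riboswitches the laboratory earlier reported (doi:10.1038/s41467-019-09493-3) 1 µM RNA, 2 h, and a rule that included a mean Z-score above 3 (spot signal-to-noise against the whole library), a score well above that on a control array, and duplicate spots agreeing (coefficient of variation under 100). The data file gives only the calls; its cut-offs may differ, and compounds hitting several targets are kept. A missing hit is not proof of no binding, and a hit is not a measured affinity.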
“hit” means called a hit, “no hit” means screened and not called a hit.
The compounds are a random part of those screened.
A dash means that no call is listed here.

structure,TPP,SAM-II,PreQ1
Nc1ncccc1CN1CCCC(c2ccc(C(=O)O)cc2)C1 (configuration not stated),no hit,no hit,no hit
O=C(O)CNc1ccccc1C(=O)N1Cc2ccccc2C1,no hit,no hit,no hit
COc1ccc(CNc2ncnc3sc4c(c23)CCCC4)cc1,no hit,-,no hit
CC1=C(c2ccc(C)cc2)S(=O)(=O)N=C1Nc1ccc(CN2CCC(C)CC2)cc1,no hit,-,no hit
CCN1CC(c2ccccc2)CC2(CCN(Cc3cnc(N)nc3)CC2)C1 (configuration not stated),no hit,no hit,no hit
Cc1cc(C)n(-c2nnc(Nc3ccccc3)c3ccccc23)n1,no hit,no hit,no hit
N#CC1=C(N)Oc2c(c(=O)oc3ccccc23)C1c1cccc(Cl)c1 (configuration not stated),no hit,no hit,no hit
CC(C)(O)CCc1ccc(CN2CCCC(O)CC2)cc1 (configuration not stated),no hit,no hit,no hit
Cc1ccc2nc(NCCCO)nc(-c3ccccc3)c2c1,no hit,no hit,no hit
COCc1nn2c(N)c(-c3ccc(OC)c(OC)c3)cnc2c1-c1ccc(OC)cc1,no hit,no hit,no hit
O=C(NCCCn1ccnn1)[C@H]1CNC[C@@H](C(=O)N2CCCC2)C1,no hit,no hit,no hit
COc1ccc(N/C=C2\C(=O)CCc3c2oc2cc(Cl)c(O)c(Cl)c32)cc1,no hit,no hit,no hit
O=C1[C@H]2CC[C@H](CN(Cc3cc(C#CCO)cs3)C2)N1CC1CCC1,no hit,no hit,no hit
NC1=C(c2nc3ccccc3c(=O)[nH]2)C(=O)CN1c1ccc(Cl)c(Cl)c1,no hit,no hit,no hit
Cn1c(=O)c2c(-c3ccc(F)cc3)n(CCO)cc2n(C)c1=O,no hit,no hit,no hit
Cc1oc(-c2cccc(C(F)(F)F)c2)nc1CN1C[C@@H]2C[C@H]1CN2,no hit,no hit,no hit
CCc1ccc(NC(=O)c2nnn(Cc3cccc(C(F)(F)F)c3)c2N)cc1,no hit,no hit,no hit
CCCc1ccc(CN2CCOCC(CO)C2)o1 (configuration not stated),no hit,no hit,no hit
Cc1ccc2c(c1)c(CNc1cc(C3CCCNC3)nc(C)n1)nn2C (configuration not stated),no hit,no hit,no hit
CCC(=O)N1CCc2cc(S(=O)(=O)N(CCO)Cc3ccccc3)ccc21,no hit,no hit,no hit
Cc1ccccc1NC(=S)Nc1ccccn1,no hit,no hit,no hit
COCc1noc(CCn2ccnc2-c2cc3n(n2)CCCNC3)n1,no hit,no hit,no hit
CC(=O)c1ccc(NC2OC(=O)c3ccccc32)cc1 (configuration not stated),no hit,no hit,no hit
CC1(C)CC(=O)C2=C(C1)Nc1ccccc1NC2c1ccc(Br)cc1 (configuration not stated),no hit,no hit,hit
Cc1ccc(NC(=O)c2cccc(CN3C[C@H](OC(C)C)[C@@H](O)C3)c2)cn1,no hit,no hit,no hit
COC(=O)c1ccc(NC(CNS(=O)(=O)c2ccc(Cl)cc2)c2ccccc2)cc1 (configuration not stated),no hit,-,no hit
CN(C(=O)c1cc(-c2ccco2)nc2c(Cl)cccc12)[C@H]1COC[C@@H]1O,no hit,no hit,no hit
OC(CN1CCN(c2ccccn2)CC1)c1ccc2c(c1)CCN2 (configuration not stated),no hit,no hit,no hit
COc1ccc(C2Nc3ccc(C(=O)c4ccccc4)cc3NC3=C2C(=O)CC(C)(C)C3)c(OC)c1 (configuration not stated),no hit,no hit,no hit
COC(=O)c1n[nH]cc1-c1cc(-c2cn(C)nc2C)nc(N)c1C#N,no hit,no hit,no hit
COc1ccc(CNCC(CO)C2(Cc3ccccc3)CCOC(C)(C)C2)cc1 (configuration not stated),no hit,no hit,no hit
Cc1cccnc1CC(C)NC1CCN(C(=O)c2ccccc2)CC1 (configuration not stated),no hit,no hit,no hit
Cc1cccc(N2CCN(C(=O)c3ccc(CNc4c(N5CCCC5)c(=O)c4=O)cc3)CC2)c1C,no hit,-,no hit
OCc1nc2ccccc2n1CCCOc1ccccc1,no hit,no hit,no hit
Cc1cc(Nc2ccc(C)c(C)c2)n2cnnc2n1,no hit,-,no hit
O=C(CCNCc1ccccc1-n1ccnc1)N1CCc2ccccc2C1,no hit,no hit,no hit
Cc1ccc(Cl)cc1N1CCN(CCCNc2ncnc3c2nc2n3CCCC2)CC1,no hit,-,no hit
c1ccc2c(c1)Oc1cccc3cccc-2c13,no hit,no hit,no hit
COCCCNc1nc2c(c(=O)n(C)c(=O)n2C)n1Cc1ccccc1,no hit,-,no hit
CCC(CO)N(Cc1ccco1)C(=O)c1cc2cccnc2nc1C (configuration not stated),no hit,no hit,no hit
Cn1c(=O)n(C)c2cc(CNCc3ccccc3)ccc21,no hit,-,no hit
CCOc1cc(C2c3c(-c4c(C)cc(C)cc4O)n[nH]c3C(=O)N2CCO)ccc1O (configuration not stated),no hit,-,no hit
Cc1cccc(-c2noc(-c3cccnc3NC(C)c3ccccc3)n2)c1 (configuration not stated),no hit,-,no hit
O=C(c1ccccc1NCc1ccccn1)N1CCC2(CCNCC2)CC1,no hit,no hit,no hit
Nc1nonc1C(=O)NCCNCc1c(OCc2ccc(F)cc2)ccc2ccccc12,no hit,-,no hit
C=CCOc1ccc(C(=O)NCCc2nnc(N)s2)cc1OCC,no hit,no hit,no hit
CN(C)c1nc(-c2ccncc2)nc2c1CCN(C(=O)[C@@H]1C[C@@H](O)CN1)C2,no hit,no hit,no hit
O=C(c1ccc(-c2cc[nH]n2)cc1)N1CC(O)CO1 (configuration not stated),no hit,no hit,no hit
CCCNc1cc(C)nc2c(C)c(-c3cccc(Cl)c3)nn12,no hit,-,no hit
Cc1ccc(CCNCC2(O)CCCN(Cc3ccc(F)c(F)c3)C2=O)o1 (configuration not stated),no hit,no hit,no hit
NCC1CN(C(=O)CCCN2Cc3ccccc3C2)CCO1 (configuration not stated),no hit,no hit,no hit
O=Cc1ccc(O)c2ncccc12,no hit,no hit,no hit
CCOC(=O)[C@H]1O[C@H]1C(=O)N[C@@H](CC(C)C)C(=O)NCCC(C)C,no hit,no hit,no hit

Once more, the final 5:

structure	TPP	SAM-II	PreQ1
CCCNc1cc(C)nc2c(C)c(-c3cccc(Cl)c3)nn12	no hit	-	no hit
Cc1ccc(CCNCC2(O)CCCN(Cc3ccc(F)c(F)c3)C2=O)o1 (configuration not stated)	no hit	no hit	no hit
NCC1CN(C(=O)CCCN2Cc3ccccc3C2)CCO1 (configuration not stated)	no hit	no hit	no hit
O=Cc1ccc(O)c2ncccc12	no hit	no hit	no hit
CCOC(=O)[C@H]1O[C@H]1C(=O)N[C@@H](CC(C)C)C(=O)NCCC(C)C	no hit	no hit	no hit